The other results are listed elsewhere or left out. The data scatter; read single values as rough.
compound: ClCC(=O)N[C@H]1CCCc2ccccc12; experiment: log2 mean competition ratio of IA-DTB cysteine labelling (DMSO/compound) (log2 ratio); higher = stronger cysteine engagement by compound; settings: 50 µM; treatment time: 4 h; cell line lysate: HEK293T
Experimental: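 IA-DTB competitive cysteine chemoproteomics in HEK293T RIPA lysate. Lysates were treated with compound 29 or 30 at 50 or 200 µM for 4 h, then IA-DTB (500 µM, 1 h), trypsin-digested, NeutrAvidin-enriched and analysed by diaPASEF. Competition ratio = intensity DMSO / intensity compound (n=4 treated, n=64 DMSO); binding: mean log2 CR ≥ 1 and p ≤ 0.05 plus QC filters. Target is the cysteine site.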

Chains of the proteins cited; added tags and fusions are not shown. Where a name states a change or a piece, a line headed by the entry shows the natural chain unless it says otherwise. A line that says so, or that is headed by a name, gives the form on record, which may keep a tag or linker. Residues count along the entry.
UniProt O95373, 72-92: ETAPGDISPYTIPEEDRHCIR
UniProt P10809: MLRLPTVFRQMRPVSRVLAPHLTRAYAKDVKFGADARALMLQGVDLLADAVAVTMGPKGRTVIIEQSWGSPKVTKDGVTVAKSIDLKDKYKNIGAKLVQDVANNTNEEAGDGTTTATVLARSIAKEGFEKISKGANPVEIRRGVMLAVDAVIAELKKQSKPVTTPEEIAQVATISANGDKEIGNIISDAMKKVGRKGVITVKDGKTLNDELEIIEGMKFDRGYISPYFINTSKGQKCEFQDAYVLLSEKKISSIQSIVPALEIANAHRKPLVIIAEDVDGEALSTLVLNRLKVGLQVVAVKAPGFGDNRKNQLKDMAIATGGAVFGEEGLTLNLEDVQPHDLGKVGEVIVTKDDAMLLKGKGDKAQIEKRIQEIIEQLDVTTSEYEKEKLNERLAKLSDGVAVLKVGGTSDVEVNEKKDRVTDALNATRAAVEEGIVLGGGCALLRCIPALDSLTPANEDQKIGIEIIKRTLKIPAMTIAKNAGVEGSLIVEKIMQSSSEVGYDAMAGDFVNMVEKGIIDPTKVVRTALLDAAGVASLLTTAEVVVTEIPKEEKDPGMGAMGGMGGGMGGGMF
UniProt Q13907: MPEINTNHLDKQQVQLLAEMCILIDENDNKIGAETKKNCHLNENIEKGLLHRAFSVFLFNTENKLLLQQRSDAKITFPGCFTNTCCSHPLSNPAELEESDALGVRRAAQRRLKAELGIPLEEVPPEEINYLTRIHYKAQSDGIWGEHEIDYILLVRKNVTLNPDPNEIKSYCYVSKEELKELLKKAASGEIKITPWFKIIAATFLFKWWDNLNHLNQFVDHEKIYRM
UniProt P42858, whole entry, looked up: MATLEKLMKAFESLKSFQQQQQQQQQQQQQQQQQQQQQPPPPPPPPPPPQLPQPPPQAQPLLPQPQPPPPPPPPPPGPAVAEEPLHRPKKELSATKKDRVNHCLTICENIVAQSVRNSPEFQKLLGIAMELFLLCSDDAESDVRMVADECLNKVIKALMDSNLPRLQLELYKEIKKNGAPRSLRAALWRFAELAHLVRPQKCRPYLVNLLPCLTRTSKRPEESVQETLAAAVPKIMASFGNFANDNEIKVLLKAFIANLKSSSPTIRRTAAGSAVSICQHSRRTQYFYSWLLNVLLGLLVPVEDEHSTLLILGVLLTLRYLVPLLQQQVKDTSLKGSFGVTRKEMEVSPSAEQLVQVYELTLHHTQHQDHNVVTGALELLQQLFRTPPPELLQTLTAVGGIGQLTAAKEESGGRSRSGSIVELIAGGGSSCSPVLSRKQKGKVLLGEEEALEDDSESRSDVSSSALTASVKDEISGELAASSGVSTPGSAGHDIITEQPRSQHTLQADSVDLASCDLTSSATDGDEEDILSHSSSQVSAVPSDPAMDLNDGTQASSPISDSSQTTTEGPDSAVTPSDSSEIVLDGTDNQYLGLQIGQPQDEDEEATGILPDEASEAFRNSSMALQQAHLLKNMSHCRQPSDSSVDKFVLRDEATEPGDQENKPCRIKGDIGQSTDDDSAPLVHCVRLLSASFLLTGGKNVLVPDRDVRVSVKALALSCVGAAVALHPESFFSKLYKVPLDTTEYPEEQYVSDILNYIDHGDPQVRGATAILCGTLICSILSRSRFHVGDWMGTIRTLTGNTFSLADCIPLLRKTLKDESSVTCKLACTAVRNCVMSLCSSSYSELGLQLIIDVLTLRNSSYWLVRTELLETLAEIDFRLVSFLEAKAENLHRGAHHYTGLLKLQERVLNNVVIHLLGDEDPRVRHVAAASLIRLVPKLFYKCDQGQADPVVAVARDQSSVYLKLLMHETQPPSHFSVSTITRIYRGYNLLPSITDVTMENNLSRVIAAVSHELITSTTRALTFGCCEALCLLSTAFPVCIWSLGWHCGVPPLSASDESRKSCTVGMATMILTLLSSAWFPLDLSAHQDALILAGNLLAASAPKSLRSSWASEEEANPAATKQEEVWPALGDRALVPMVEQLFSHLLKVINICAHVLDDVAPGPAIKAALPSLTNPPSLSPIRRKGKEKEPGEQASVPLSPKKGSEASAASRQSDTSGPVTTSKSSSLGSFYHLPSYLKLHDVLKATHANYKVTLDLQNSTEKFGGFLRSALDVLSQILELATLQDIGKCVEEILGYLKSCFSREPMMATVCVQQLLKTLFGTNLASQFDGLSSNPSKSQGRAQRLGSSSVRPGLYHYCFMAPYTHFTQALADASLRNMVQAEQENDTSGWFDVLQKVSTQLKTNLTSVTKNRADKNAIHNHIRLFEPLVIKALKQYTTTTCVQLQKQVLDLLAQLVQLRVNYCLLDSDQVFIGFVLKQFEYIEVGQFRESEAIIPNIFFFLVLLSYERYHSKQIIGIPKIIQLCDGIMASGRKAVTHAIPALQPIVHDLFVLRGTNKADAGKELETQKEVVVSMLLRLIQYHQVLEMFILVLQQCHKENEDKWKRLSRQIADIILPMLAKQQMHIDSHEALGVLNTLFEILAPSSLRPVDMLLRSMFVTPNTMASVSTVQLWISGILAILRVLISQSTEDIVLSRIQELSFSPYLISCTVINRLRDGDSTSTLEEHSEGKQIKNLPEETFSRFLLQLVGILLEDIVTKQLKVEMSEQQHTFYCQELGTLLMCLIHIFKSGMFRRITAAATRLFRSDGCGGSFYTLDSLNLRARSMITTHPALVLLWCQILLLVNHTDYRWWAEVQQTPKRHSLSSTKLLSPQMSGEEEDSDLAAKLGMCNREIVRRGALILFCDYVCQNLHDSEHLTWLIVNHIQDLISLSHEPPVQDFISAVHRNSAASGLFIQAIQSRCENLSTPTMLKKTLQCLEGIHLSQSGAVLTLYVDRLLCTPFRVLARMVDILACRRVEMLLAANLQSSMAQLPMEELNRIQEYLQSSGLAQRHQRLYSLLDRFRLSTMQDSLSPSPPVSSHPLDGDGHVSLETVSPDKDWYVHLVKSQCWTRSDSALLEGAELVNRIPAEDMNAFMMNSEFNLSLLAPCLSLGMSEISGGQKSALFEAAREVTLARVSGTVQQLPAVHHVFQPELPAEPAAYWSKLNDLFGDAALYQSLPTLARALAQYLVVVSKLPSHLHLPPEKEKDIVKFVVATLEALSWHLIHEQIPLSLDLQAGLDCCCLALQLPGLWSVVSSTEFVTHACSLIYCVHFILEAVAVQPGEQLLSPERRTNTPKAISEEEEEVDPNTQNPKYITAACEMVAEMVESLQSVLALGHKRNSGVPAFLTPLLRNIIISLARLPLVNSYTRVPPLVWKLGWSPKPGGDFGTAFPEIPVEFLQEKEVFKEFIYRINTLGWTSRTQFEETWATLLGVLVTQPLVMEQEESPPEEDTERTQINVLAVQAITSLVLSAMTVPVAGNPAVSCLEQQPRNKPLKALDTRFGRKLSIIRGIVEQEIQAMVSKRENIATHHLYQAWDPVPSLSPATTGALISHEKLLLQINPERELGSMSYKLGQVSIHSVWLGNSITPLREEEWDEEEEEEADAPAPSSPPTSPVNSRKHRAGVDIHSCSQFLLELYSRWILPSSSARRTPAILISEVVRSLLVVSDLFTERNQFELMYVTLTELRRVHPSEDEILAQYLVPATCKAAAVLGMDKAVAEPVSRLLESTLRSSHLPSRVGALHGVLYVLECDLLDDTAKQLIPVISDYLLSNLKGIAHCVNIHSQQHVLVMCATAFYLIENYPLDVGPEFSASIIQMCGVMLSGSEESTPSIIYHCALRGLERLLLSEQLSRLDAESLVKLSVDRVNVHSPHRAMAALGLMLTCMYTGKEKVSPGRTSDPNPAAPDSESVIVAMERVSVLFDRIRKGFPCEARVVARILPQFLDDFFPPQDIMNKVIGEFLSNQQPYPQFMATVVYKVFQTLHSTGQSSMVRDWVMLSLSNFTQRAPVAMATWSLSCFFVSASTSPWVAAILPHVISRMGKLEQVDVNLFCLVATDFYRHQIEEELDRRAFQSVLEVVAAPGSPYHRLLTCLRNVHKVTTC
UniProt Q9NV88, whole entry, looked up: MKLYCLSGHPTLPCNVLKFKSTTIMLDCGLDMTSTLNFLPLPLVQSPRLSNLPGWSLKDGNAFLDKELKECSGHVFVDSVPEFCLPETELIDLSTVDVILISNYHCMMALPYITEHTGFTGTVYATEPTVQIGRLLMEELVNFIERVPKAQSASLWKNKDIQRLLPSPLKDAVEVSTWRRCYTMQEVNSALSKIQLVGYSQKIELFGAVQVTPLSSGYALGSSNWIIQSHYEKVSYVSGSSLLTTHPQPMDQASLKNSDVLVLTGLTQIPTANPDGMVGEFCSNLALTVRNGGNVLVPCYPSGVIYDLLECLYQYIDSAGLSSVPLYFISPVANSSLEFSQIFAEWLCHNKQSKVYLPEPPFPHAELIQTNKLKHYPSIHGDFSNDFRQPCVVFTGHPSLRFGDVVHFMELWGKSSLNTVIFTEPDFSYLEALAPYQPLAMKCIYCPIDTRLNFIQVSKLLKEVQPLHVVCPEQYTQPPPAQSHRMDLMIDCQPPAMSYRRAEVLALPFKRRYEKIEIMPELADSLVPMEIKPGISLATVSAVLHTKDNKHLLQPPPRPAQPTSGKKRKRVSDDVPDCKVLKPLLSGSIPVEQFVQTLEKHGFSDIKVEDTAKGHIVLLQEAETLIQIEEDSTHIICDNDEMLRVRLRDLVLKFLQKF
UniProt Q9Y2F5, 1599-1623: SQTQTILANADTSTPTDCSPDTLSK
UniProt Q8TEX9: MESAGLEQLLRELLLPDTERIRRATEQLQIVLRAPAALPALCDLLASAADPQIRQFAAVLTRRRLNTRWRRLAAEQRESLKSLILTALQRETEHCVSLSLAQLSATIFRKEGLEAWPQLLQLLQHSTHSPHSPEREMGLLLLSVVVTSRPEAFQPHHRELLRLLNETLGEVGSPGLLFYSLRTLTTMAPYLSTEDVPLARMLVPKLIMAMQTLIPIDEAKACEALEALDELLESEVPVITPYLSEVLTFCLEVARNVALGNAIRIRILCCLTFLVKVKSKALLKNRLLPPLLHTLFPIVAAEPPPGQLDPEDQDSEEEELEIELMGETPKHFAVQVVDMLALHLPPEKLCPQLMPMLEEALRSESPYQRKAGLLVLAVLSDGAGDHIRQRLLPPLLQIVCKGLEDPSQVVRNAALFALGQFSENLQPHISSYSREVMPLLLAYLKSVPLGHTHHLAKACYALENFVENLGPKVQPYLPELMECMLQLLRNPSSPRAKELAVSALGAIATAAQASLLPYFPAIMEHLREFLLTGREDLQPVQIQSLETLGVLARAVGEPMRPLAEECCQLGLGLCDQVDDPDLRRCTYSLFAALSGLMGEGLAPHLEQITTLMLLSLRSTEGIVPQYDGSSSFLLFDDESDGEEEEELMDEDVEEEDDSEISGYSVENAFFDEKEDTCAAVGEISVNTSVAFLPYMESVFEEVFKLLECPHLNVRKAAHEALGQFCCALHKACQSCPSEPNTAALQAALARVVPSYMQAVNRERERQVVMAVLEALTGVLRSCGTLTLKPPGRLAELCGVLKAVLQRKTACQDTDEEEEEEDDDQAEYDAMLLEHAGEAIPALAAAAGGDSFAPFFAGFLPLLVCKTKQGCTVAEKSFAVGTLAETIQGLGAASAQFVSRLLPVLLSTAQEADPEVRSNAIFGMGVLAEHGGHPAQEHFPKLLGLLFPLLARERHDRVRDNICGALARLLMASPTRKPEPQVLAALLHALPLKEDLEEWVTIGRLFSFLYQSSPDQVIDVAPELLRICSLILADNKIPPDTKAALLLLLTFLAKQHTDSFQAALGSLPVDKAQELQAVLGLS
UniProt Q12894: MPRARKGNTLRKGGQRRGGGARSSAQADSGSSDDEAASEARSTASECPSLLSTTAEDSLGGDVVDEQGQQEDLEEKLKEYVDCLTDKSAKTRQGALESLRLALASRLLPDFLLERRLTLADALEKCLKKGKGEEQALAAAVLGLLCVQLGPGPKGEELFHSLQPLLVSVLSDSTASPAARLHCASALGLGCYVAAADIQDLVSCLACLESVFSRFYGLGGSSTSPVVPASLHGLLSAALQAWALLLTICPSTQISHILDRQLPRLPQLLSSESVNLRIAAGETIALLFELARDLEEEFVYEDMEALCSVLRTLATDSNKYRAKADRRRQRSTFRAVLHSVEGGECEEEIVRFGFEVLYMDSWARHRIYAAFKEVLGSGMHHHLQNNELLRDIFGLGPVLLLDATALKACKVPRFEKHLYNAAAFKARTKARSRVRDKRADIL
UniProt Q9H160: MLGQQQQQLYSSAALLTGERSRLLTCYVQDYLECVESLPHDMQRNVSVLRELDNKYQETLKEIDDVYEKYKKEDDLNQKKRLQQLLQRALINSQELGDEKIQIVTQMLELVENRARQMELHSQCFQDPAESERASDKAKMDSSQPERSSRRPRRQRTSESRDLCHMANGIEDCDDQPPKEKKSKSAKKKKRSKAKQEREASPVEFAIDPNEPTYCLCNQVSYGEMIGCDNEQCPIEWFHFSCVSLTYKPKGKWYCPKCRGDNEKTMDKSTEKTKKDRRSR
IARS1_(C350,C350,C357,C357), as listed by the source: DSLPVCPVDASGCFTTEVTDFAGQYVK

Row | Target | log2 mean competition ratio
1 | IPO7 C90 (UniProt O95373) | -0.199
2 | INTS10 C387 (UniProt Q9NVR2) | -0.0414
3 | HSPD1 C237 (UniProt P10809) | -0.229
4 | IDI1 C172 (UniProt Q13907) | 0.605
5 | HTT C150 (UniProt P42858) | 0.242
6 | IFT27 C8 (UniProt Q9BW83) | 0.0856
7 | HTT C2747 (UniProt P42858) | -0.562
8 | IPO5 C266 | 0.246
9 | IFFO1 C341 | -0.341
10 | INTS9 C578 (UniProt Q9NV88) | 0.199
11 | ICE1 C1616 (UniProt Q9Y2F5) | -0.294
12 | INTS13 C178 (UniProt Q9NVM9) | -0.0174
13 | IARS1_(C350,C350,C357,C357) | 0.904
14 | IPO4 C962 (UniProt Q8TEX9) | 0.397
15 | IFT22 C12 (UniProt Q9H7X7) | -0.074
16 | IRF2BPL C385 (UniProt Q9H1B7) | 0.352
17 | IFRD2 C409 (UniProt Q12894) | -0.237
18 | ING2 C124 (UniProt Q9H160) | -0.143
19 | IPO11 C262 (UniProt Q9UI26) | 0.176
20 | IARS1 C433 | 0.227

same assay, conditions: 200 µM; treatment time: 4 h; cell line lysate: HEK293T

Row | Target | log2 mean competition ratio
21 | IPO7 C90 (UniProt O95373) | 0.221
22 | INTS10 C387 (UniProt Q9NVR2) | 0.167
23 | HSPD1 C237 (UniProt P10809) | -0.0971
24 | IDI1 C172 (UniProt Q13907) | -0.0783
25 | HTT C150 (UniProt P42858) | -0.0176
26 | IFT27 C8 (UniProt Q9BW83) | 0.0374
27 | HTT C2747 (UniProt P42858) | 0.152
28 | IPO5 C266 | -0.00618
29 | IFFO1 C341 | 0.13
30 | INTS9 C578 (UniProt Q9NV88) | 0.489
31 | ICE1 C1616 (UniProt Q9Y2F5) | -0.0231
32 | INTS13 C178 (UniProt Q9NVM9) | -0.312
33 | IARS1_(C350,C350,C357,C357) | 0.0297
34 | IPO4 C962 (UniProt Q8TEX9) | -0.124
35 | IFT22 C12 (UniProt Q9H7X7) | 0.0288
36 | IRF2BPL C385 (UniProt Q9H1B7) | 0.0266
37 | IFRD2 C409 (UniProt Q12894) | -0.185
38 | ING2 C124 (UniProt Q9H160) | -0.00368
39 | IPO11 C262 (UniProt Q9UI26) | 0.321
40 | IARS1 C433 | -0.248
